Results as given in patent publication US20250129170A1.
Where a chain is given by its changes, count along the chain named. These are yes or no findings as the source states them, for the method shown. Some entries that bind do so weakly or less than the wild type.

Chains of the proteins cited; added tags and fusions are not shown. Residues count along the entry.
UniProt P32927, residues 17-443: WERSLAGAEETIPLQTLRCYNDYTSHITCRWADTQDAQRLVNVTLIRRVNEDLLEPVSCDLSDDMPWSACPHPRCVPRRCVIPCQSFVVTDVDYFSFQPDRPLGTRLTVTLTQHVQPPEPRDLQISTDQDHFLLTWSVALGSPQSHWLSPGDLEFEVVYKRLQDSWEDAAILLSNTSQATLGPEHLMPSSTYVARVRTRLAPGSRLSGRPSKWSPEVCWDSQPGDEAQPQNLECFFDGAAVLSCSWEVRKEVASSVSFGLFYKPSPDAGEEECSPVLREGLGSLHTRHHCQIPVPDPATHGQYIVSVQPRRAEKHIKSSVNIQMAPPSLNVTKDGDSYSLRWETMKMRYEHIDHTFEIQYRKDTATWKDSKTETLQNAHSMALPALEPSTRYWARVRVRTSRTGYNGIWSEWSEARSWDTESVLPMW

Biological target: hCD131-Fc (IME021, inhouse) (human) (UniProt P32927)
Experiment: B-cell sorting, labelled hEPOR-Fc and hCD131-Fc

B1: clonotype235 (EPOR/CD131 binder, Table 8) (antibody, V domains shown)
VH: QVQVVQSGAEVRKSGASVKVSCKASGYTFTSYYIHWVRQVPGQGLEWMGLINPSGGSTIYAQKFQGRVTMTRDTSTSSVYMELSSLRSEDTAAYYCARGGWGTMDVWGKGTTVTVSS
VL: SSELTQDPAVSVALGQTVRITCQGDSLRSYYASWYQQKPGQAPVLVIYGKNNRPSGIPDRFSGSSSGNTASLTITGAQAEDEADYYCNSRDSSGNHYVFGTGTKVTVL
With B1 the binding was “binds”.

B2: clonotype236 (EPOR/CD131 binder, Table 8) (antibody, V domains shown)
VH: EVQLVESGGGLVQPGGSLRLSCAASGFTFSSYDMHWVRQATGKGLEWVSAIGTAGDTYYPGSVKGRFTISRENAKNSLYLQMNSLRAGDTAVYYCARAWELDAFDIWGQGTMVTVSS
VL: B1 VL with Y97V, T101G, V105L
With B2 the binding was “binds”.

B3: clonotype239 (EPOR/CD131 binder, Table 8) (antibody, V domains shown)
VH: EVQVMESGGGLVKPGGSLRLSCAASGFSFSSHSLNWVRQAPGKGLEWVSSISGISNYIAYADSVRGRFTISRDNAKNSLFLQMNSLRAEDTGVYYCARITVVSFDYWGQGTLVTVTS
VL: QSALTQPASVSGSPGQSITISCTGTNNDVGYYNYVSWYQQHPDKAPKLMIYDVIKRPSGVSDRFSGSKSGNTASLTISGLQAEDEADYYCCSYAGSSTWVFGGGTKLSVL
B3 was tested, and the binding was “binds”.

B4: clonotype246 (EPOR/CD131 binder, Table 8) (antibody, V domains shown)
VH: EVQLVESGGGLVQPGGSLRLSCAASGFTFSSYSMNWVRQAPGKGLEWVSYISSSSSTIYYADSVKGRFTISRDNAKNSLYLQMNSPRDEDTAVYYCARESIAALFDYWGQGTLVTVSS
VL: B1 VL with Y97L, T101G, V105L
For B4, the binding was “binds”.

B5: clonotype247 (EPOR/CD131 binder, Table 8) (antibody, V domains shown)
VH: EVQLVESGGGLVQPGGSLRLSCAASGFTFSSYDMHWVRQATGKGLEWVSAIGTAGDTYYPGSVKGRFTISRENAKNSLYLQMNSLRAGDTAVYYCARGDHSYGGLDYWGQGTLVTVSS
VL: SYELTQPPSVSVSLGQMARITCSGEALPKKYAYWYQQKPGQFPVLVIYKDSERPSGIPERFSGSSSGTIVTLTISGVQAEDEADYYCLSADSSGTYRVFGGGTKLTVL
With B5 the binding was “binds”.

B6: clonotype260 (EPOR/CD131 binder, Table 8) (antibody, V domains shown)
VH: EVQLVESGGGVVRPGGSLRLSCAASGFPFDDFGLNWVRQAPGKGLEWVSGINWNGGTTTYADSVKGRFTISRDNAKKSLYLQMSSLRVEDTALFYCVRDEIWNYYFDYWGQGTLVTVSS
VL: SYELTQPSSVSVSPGQTARITCSGDVLAKKYARWFQQKPGQAPVLVIYKDSERPSGIPERFSGSSSGTTVTLTISGAQVEDEADYYCYSAADNNRVFGGGTKLTVL
B6 was tested, and the binding was “binds”.

B7: clonotype264 (EPOR/CD131 binder, Table 8) (antibody, V domains shown)
VH: EVQLVESGGGLVQPGGSLRLSCAASGFTFSSYWMHWVRQAPGKGLVWVSRINSDGSSTSYADSVKGRFTISRDNAKNTLYLQMNSLRAEDTAVYYCARVGWGGHAFDIWGQGTMVTVSS
VL: B1 VL with Y97V, T101G, V105L
With B7 the binding was “binds”.

B8: clonotype272 (EPOR/CD131 binder, Table 8) (antibody, V domains shown)
VH: EVQLVESGGGLVQPGGSLRLSCAASGFTFNRYNMNWVRQAPGKGLEWVSYISSSSDTIYYADSVKGRFTISRDNAKNSLYLQMNSLRDEDTAMYYCARECYSSSWAFDYWGQGTLVTVSS
VL: SSELTQDPAVSVALGQTVRITCQGDSLRSYYASWYQQKPGQAPVLVIYGKNNRPSGILDRFSGSSSGNTASLTITGAQAEDEGDYYCNSRDSSGWVFGGGTKLTVL
B8 was tested, and the binding was “binds”.

B9: clonotype273 (EPOR/CD131 binder, Table 8) (antibody, V domains shown)
VH: QVQLQESGPGLVKPSGTLSLTCAISGGSISSSNWWSWVRQPPGKGLEWIGEIYHSGSTNFNPSLKSRVTISVDKSKNQFSLHLSSVTAADTAVYYCARDVGVDGRGFDYWGQGIVVIVSS
VL: SYELTQPPSVSVSPGQTANITCSGDKLENKYTCWYQQKPGQSPLVVIYQDNKRPSGIPERFSGSNSGNTATLTISGTQAMDEADYYCQAWDSTTAWVFGGGTKLTVL
B9 was tested, and the binding was “binds”.

B10: clonotype274 (EPOR/CD131 binder, Table 8) (antibody, V domains shown)
VH: EVQLVESGGGLVQPGGSLRLSCGVSGFTFSIYWMSWVRQAPGKGLEWVANINLDGSEKYHVDSVKGRFTISRDNAKNSLFLQMTSLRAEDTAVYYCARDILWSGGYLDVWGKGTTVTVSS
VL: SSELTQDPAVSVALGQTVRITCQGDNIRNYYASWYQQKPGQAPLLVISGKNNRPSGIPDRFSGSSSGNTASLTITGAQAEDEAYYYCYSRDSSGSLWIFGGGTKLTVL
With B10 the binding was “binds”.

B11: clonotype275 (EPOR/CD131 binder, Table 8) (antibody, V domains shown)
VH: EVQLVESGGGLVQPGGSLRLSCAASGFTFSGYWMTWVRQAPGKGLEWVANIKHDGSEKYYVDSVKGRFTISRDNAQNSLYLQMNSLRAEDTAVYYCARKQLWLNWYFDFWGRGILVTVSS
VL: B1 VL with S29R, N51D, A77T, Y97L, T101G, V105L
B11 was tested, and the binding was “binds”.

B12: clonotype276 (EPOR/CD131 binder, Table 8) (antibody, V domains shown)
VH: QVQLVQSGAEVKKPGASVKVSCKASGYTFTTYGISWVRQAPGQGLEWMGWISAFNGNTNYAQNLQGRVTMTTDTSTSTAYMELRSLRSDDTAVYYCARENNWNYGWFDPWGQGTLVTVSS
VL: B1 VL
B12 was tested, and the binding was “binds”.

B13: clonotype282 (EPOR/CD131 binder, Table 8) (antibody, V domains shown)
VH: EVQLVESGGGLVKPGGSLRLSCAASGFTFSSYSMNWVRQAPGKGLEWVSSISSSSSYIYYADSVKGRFTISRDNAKNSLYLQMNSLRAEDTAVYYCAREGNWGPYYFDYWGQGTLVTVSS
VL: B3 VL with N26S, N27S, Y31G, D43G, I54S, D62N, W99V, S108T
In the case of B13, the binding is reported as “binds”.

B14: clonotype289 (EPOR/CD131 binder, Table 8) (antibody, V domains shown)
VH: EVHLVESGGGLVQPGGSLRLSCAASGFTFSGYWMSWVRQAPGKGLEWVANIKQDGSDKYYVDSVKGRFTISRDNAINSLFLQLTSLRAEDTAVYYCAREIDWNYGFHFDYWGQGTLITVSS
VL: SYELTQPPSVSVSPGQTARITCSGDALPQKYAFWYQQKSGQAPVLVIYEDSERPSGIPERFSGSTSGTMATLTISGAQVEDEADYYCFSTDSSGNKVFGGGTKLTVL
With B14 the binding was “binds”.

B15: clonotype290 (EPOR/CD131 binder, Table 8) (antibody, V domains shown)
VH: QVQLVQSGAEVKKPGASVKVSCKASGYTFTSYDINWVRQATGQGLEWMGWMNPNSGNTGYAQKFQGRVTMTRNTSISTAYMELSSLRSEDTAVYYCARGYYDFWSGPFDYWGQGTLVTVSS
VL: B14 VL with Q29K, F33Y, E52K, T65S, F88Y, K96R
For B15, the binding was “binds”.

B16: clonotype292 (EPOR/CD131 binder, Table 8) (antibody, V domains shown)
VH: QVQLQESGPGLVKPSETLSLTCTVSGGSISDYYWNWIRQPPGKGLEWIGYISSRGRTNYNPSLKSRVTLSVDSSKNQFSLKLTSVTAADTAVFYCARGRHFDWLLSYFDYWGQGTLVTVSS
VL: B1 VL
B16 was tested, and the binding was “binds”.

B17: clonotype293 (EPOR/CD131 binder, Table 8) (antibody, V domains shown)
VH: EVQLVESGGGLVKPGGSLRLSCAASGFTFSSDNMNWVRQAPGKGLEWVSSIGSSSSYIYYADSVKGRFTISRDNAKNSLYLQMNSLRAEDTAVYYCARDRAIVGATWFDPWGQGTLVIVSS
VL: B1 VL with S29N, V44I, G94Y, Y97W, T101G, V105L
In the case of B17, the binding is reported as “binds”.

B18: clonotype294 (EPOR/CD131 binder, Table 8) (antibody, V domains shown)
VH: EVQLVESGGGLVKPGGSLRLSCAASGFTFSSYSMNWVRQAPGKGLEWVSSISSSSSYIYYADSVKGRFTISRDNAKNSLYLQMNSLRAEDTAVYYCARDRYNWNYRYFDLWGRGTLVTVSS
VL: B1 VL with Y97L, T101G, V105L
In the case of B18, the binding is reported as “binds”.

B19: clonotype296 (EPOR/CD131 binder, Table 8) (antibody, V domains shown)
VH: QVQLVQSGAEVKKPGASVKVSCKASGYTFTSYGISWVRQAPGQGLEWMGWISAYNGNTNYAQKLQGRVTMTTDTSTSTAYMELRSLRSDDTAVYYCARDGAARPPRYMDVWGKGTTVTVSS
VL: B1 VL with Y97L, T101G, V105L
With B19 the binding was “binds”.

B20: clonotype298 (EPOR/CD131 binder, Table 8) (antibody, V domains shown)
VH: QVQLVQSGSEVKKPGASVKVSCKASGYTFTGYYMYWVRQAPGQGLEWMGWINPNSGGTNYAQKFQDRVTMTRDTSISTAYMELSRLRSDDTAIYYCARDLDYYGSGNYDYWGQGTLVTVSS
VL: B1 VL with G94D, Y97R, T101G, V105L
B20 was tested, and the binding was “binds”.

B21: clonotype300 (EPOR/CD131 binder, Table 8) (antibody, V domains shown)
VH: EVQLVESGGGLVQPGGSLRLSCAASGFTFSSYWMHWVRQAPGKGLVWVSRVNSDGSNTTYADSVKGRFTISRDNAKNTLYLQMNSLRAEDTAVYYCARNRDYHGSGSFDYWGQGTLVTVSS
VL: B1 VL with K50Q, Y97W, T101G, V105L
B21 was tested, and the binding was “binds”.

B22: clonotype301 (EPOR/CD131 binder, Table 8) (antibody, V domains shown)
VH: QVQLQQSGPGLVKPSQTLSLTCAISGDNVSSNSAAWNWIRQSPSRGLEWLGRTYYRSKWYNDYAVSVKSRITINPDTSKNQFSLHLNSVTPEDTALYYCARDWNFAFDIWGQGTMVTVSS
VL: B1 VL with Y97L, T101G, V105L
B22 was tested, and the binding was “binds”.

B23: clonotype302 (EPOR/CD131 binder, Table 8) (antibody, V domains shown)
VH: QVQLVQSGAEVKKPGASVKVSCKASGYTFTSYGITWVRQAPGQGLEWMGWISAYNGNTHYAQKLQGRVTMTTDTSTSTAYMDLRSLRSDDTAVYYCARTIFGVVNNWFDPWGQGTLVTVSS
VL: QSVLSQPPSVSEAPRQRVTISCSGSSSNIGYNAVNWYQQLPGKAPKLLISHDDLLPSGVSDRFSGSKSGTSASLAISGLQSDDEADYYCAAWDARLNGWVFGGGTKLTVL
In the case of B23, the binding is reported as “binds”.

B24: clonotype304 (EPOR/CD131 binder, Table 8) (antibody, V domains shown)
VH: EVQLVESGGGLVKPGGSLRLSCAASGFTFSRYSMNWVRQAPGKGLEWVSSIISSTSYIYYADSVKGRFTISRDNAKNSLYLQMNSLRAEDTAVYYCARETPVTLFDAFDIWGQGTMVTVSS
VL: QSVLTQPPSVSGAPGQRVTISCTGSSSNIGARYDVHWYQLLPGSAPKLLIYDNSDRPSGVPDRFSGSRSGTSASLAITGLQAEDEADYFCQSYDSSLSGSVFGGGTKLTVL
In the case of B24, the binding is reported as “binds”.
